Drawing on paper PMC5090039, this text covers binding for 3 molecules.

In this assay the target is HCV core (J6/JFH genome), GLuc2 fusion (hepatitis C virus (J6/JFH genome)). Briefly: split reporter; protein-fragment complementation assay (PCA) with split Gaussia luciferase; GLuc1-prey (ESCRT) and GLuc2-bait (HCV) plasmids cotransfected pairwise into 293T cells in 96-well plates, lysed at 24 h; normalized luminescence ratio (NLR); positive at z score >2.2 (NLR >25).

No constants are given. Whether binding was seen depends on the method and setting. Binding seen in cells or lysates may run through a third protein. Binding can be weak; no strength is given. Tags and fused reporters may be left off the sequences shown.

B1: CHMP1A, GLuc1 fusion (protein, UniProt Q9HD42 1-196)
chain: MDDTLFQLKFTAKQLEKLAKKAEKDSKAEQAKVKKALLQKNVECARVYAENAIRKKNEGVNWLRMASRVDAVASKVQTAVTMKGVTKNMAQVTKALDKALSTMDLQKVSSVMDRFEQQVQNLDVHTSVMEDSMSSATTLTTPQEQVDSLIMQIAEENGLEVLDQLSQLPEGASAVGESSVRSQEDQLSRRLAALRN
As to B1, the binding result was “binds”.

B2: CHMP4B, GLuc1 fusion (protein, UniProt Q9H444 1-224)
chain: MSVFGKLFGAGGGKAGKGGPTPQEAIQRLRDTEEMLSKKQEFLEKKIEQELTAAKKHGTKNKRAALQALKRKKRYEKQLAQIDGTLSTIEFQREALENANTNTEVLKNMGYAAKAMKAAHDNMDIDKVDELMQDIADQQELAEEISTAISKPVGFGEEFDEDELMAELEELEQEELDKNLLEISGPETVPLPNVPSIALPSKPAKKKEEEDDDMKELENWAGSM
B2: the binding result is “binds”.

B3: SLC9A6, GLuc1 fusion (protein, UniProt Q92581 1-701)
chain: MARRGWRRAPLRRGVGSSPRARRLMRPLWLLLAVGVFDWAGASDGGGGEARAMDEEIVSEKQAEESHRQDSANLLIFILLLTLTILTIWLFKHRRARFLHETGLAMIYGLLVGLVLRYGIHVPSDVNNVTLSCEVQSSPTTLLVNVSGKFYEYMLKGEISSHELNNVQDNEMLRKVTFDPEVFFNILLPPIIFYAGYSLKRRHFFRNLGSILAYAFLGTAISCFVIGSIMYGCVTLMKVTGQLAGDFYFTDCLLFGAIVSATDPVTVLAIFHELQVDVELYALLFGESVLNDAVAIVLSSSIVAYQPAGDNSHTFDVTAMFKSIGIFLGIFSGSFAMGAATGVVTALVTKFTKLREFQLLETGLFFLMSWSTFLLAEAWGFTGVVAVLFCGITQAHYTYNNLSTESQHRTKQLFELLNFLAENFIFSYMGLTLFTFQNHVFNPTFVVGAFVAIFLGRAANIYPLSLLLNLGRRSKIGSNFQHMMMFAGLRGAMAFALAIRDTATYARQMMFSTTLLIVFFTVWVFGGGTTAMLSCLHIRVGVDSDQEHLGVPENERRTTKAESAWLFRMWYNFDHNYLKPLLTHSGPPLTTTLPACCGPIARCLTSPQAYENQEQLKDDDSDLILNDGDISLTYGDSTVNTEPATSSAPRRFMGNSSEDALDRELAFGDHELVIRGTRLVLPMDDSEPPLNLLDNTRHGPA
With B3, the binding entry is “binds”.
